3 molecules from the supplement of paper PMC10032668 can be followed below.

The chains behind the UniProt entries cited, without tags or fusion partners.
GNB1, P62873, UniProt P62873, whole entry: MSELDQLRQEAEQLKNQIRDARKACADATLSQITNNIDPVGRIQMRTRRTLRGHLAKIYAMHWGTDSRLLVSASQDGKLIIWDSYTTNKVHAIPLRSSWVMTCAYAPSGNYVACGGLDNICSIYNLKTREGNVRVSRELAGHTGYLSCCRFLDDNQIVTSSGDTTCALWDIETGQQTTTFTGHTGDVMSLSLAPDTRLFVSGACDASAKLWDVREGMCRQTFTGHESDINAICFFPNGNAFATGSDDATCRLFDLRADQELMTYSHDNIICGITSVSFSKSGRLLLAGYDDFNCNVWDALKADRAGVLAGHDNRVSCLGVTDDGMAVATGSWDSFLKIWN
MTHFD1L, Q6UB35, UniProt Q6UB35, whole entry: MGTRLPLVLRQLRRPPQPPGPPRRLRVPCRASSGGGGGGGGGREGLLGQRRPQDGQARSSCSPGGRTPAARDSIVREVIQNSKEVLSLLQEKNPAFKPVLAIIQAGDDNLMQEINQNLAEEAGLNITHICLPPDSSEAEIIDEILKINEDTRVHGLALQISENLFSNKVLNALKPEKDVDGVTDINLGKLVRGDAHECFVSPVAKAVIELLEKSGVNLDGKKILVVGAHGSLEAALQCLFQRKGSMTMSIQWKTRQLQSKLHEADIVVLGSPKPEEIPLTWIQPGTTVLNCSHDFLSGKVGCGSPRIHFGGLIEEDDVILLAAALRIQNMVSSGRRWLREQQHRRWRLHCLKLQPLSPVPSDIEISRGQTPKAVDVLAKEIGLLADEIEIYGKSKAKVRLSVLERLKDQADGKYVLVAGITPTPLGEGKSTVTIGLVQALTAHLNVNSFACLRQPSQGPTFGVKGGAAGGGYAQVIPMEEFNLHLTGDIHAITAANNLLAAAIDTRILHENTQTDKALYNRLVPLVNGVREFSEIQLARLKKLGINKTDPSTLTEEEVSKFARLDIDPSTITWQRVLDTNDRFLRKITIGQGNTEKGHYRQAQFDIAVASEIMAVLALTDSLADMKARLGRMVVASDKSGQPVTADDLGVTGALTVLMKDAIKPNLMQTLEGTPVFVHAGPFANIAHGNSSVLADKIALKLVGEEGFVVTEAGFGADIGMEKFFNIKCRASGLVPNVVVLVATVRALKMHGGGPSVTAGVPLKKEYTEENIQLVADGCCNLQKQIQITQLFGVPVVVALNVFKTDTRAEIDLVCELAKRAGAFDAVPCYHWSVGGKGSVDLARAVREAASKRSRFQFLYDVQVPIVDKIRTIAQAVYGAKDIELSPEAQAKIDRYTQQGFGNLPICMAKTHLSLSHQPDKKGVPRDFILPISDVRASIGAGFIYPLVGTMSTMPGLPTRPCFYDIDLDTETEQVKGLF
NDUFS1, P28331, UniProt P28331, whole entry: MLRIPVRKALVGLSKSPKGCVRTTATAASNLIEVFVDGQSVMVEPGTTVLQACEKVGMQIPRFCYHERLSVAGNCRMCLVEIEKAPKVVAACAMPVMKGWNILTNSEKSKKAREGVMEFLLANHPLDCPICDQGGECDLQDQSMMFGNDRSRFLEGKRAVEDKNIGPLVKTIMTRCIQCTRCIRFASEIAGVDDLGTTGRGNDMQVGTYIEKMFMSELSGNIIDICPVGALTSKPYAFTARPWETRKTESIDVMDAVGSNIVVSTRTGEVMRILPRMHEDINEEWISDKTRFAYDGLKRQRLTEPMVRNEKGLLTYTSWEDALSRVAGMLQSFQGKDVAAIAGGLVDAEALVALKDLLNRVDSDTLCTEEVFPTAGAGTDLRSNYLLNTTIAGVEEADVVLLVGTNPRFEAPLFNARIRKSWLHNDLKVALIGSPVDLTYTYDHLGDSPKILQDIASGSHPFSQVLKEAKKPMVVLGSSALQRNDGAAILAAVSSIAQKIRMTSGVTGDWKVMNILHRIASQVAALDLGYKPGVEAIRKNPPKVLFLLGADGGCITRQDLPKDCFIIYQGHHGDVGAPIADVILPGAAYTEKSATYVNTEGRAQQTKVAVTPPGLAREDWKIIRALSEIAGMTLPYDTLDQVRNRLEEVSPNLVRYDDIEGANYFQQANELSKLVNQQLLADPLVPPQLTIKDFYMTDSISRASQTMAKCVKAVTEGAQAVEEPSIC
NDUFS5, O43920, UniProt O43920, whole entry: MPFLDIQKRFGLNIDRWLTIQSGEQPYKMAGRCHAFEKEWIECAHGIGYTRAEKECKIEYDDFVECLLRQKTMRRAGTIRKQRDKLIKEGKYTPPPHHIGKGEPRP
C3, P01024, UniProt P01024, whole entry: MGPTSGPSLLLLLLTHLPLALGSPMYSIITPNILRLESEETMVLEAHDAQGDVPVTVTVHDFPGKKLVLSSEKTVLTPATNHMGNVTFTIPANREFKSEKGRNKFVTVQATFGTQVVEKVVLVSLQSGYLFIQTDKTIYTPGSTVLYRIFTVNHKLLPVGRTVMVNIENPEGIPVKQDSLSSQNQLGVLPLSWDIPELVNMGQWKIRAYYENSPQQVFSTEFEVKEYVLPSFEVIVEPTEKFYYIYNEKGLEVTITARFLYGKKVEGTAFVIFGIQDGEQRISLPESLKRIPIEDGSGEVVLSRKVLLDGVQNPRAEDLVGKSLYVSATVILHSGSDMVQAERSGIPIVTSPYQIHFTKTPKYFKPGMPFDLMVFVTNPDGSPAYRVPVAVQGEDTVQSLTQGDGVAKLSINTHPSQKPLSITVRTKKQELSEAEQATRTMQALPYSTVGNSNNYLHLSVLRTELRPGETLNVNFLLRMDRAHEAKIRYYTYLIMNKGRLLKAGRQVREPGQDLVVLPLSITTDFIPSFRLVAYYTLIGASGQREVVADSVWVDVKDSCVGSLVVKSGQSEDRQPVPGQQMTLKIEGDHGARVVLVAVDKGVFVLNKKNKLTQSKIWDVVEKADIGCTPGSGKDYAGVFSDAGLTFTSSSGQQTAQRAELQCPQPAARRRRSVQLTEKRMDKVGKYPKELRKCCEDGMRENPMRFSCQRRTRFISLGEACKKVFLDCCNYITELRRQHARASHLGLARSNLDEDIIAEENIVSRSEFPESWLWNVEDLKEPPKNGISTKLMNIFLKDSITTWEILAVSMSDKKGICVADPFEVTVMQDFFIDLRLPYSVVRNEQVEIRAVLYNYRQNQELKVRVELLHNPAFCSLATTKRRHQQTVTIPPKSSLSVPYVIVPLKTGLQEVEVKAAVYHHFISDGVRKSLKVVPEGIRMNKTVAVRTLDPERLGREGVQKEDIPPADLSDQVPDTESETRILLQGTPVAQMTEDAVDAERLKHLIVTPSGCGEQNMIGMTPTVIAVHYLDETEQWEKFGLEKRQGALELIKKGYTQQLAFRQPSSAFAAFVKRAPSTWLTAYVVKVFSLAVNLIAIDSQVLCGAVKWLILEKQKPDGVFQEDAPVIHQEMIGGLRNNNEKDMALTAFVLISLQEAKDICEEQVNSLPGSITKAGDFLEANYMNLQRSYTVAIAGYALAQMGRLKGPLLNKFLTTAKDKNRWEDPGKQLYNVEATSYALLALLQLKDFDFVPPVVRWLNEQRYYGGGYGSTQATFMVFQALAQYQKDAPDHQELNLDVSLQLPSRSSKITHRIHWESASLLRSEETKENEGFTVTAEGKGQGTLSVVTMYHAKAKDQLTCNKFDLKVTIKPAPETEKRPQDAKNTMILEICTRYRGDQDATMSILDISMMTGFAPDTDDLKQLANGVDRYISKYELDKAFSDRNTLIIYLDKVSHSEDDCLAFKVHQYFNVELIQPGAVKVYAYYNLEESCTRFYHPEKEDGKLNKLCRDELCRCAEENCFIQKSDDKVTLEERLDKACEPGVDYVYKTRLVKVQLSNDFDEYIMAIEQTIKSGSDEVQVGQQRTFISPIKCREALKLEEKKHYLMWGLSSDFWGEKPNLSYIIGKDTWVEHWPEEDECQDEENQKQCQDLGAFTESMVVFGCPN
NDUFS7, O75251, UniProt O75251, whole entry: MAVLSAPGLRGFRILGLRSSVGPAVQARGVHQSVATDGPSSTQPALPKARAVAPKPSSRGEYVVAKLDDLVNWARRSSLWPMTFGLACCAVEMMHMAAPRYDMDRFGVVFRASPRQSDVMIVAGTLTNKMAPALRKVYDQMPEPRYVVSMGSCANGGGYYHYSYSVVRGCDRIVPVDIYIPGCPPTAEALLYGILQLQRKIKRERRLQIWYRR
NELFA, Q9H3P2, UniProt Q9H3P2, whole entry: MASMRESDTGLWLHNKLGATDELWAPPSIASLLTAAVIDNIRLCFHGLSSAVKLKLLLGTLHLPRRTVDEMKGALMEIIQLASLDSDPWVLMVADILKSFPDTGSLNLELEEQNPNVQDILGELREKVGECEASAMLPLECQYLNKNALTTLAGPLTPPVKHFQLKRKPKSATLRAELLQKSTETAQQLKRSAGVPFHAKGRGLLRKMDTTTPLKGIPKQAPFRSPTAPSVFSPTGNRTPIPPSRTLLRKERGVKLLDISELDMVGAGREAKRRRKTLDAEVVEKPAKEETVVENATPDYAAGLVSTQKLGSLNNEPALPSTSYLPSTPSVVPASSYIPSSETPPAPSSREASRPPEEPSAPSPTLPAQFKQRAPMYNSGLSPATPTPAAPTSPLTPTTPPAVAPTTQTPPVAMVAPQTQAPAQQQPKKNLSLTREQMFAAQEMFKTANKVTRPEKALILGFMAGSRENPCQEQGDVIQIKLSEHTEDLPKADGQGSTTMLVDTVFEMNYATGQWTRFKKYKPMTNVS
PIN1, Q13526, UniProt Q13526, whole entry: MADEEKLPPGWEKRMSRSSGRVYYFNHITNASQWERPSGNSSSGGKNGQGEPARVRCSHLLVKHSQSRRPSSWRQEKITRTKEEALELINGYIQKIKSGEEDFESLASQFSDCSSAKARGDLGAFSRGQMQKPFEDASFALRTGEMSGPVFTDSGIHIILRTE
TELO2, Q9Y4R8, UniProt Q9Y4R8, whole entry: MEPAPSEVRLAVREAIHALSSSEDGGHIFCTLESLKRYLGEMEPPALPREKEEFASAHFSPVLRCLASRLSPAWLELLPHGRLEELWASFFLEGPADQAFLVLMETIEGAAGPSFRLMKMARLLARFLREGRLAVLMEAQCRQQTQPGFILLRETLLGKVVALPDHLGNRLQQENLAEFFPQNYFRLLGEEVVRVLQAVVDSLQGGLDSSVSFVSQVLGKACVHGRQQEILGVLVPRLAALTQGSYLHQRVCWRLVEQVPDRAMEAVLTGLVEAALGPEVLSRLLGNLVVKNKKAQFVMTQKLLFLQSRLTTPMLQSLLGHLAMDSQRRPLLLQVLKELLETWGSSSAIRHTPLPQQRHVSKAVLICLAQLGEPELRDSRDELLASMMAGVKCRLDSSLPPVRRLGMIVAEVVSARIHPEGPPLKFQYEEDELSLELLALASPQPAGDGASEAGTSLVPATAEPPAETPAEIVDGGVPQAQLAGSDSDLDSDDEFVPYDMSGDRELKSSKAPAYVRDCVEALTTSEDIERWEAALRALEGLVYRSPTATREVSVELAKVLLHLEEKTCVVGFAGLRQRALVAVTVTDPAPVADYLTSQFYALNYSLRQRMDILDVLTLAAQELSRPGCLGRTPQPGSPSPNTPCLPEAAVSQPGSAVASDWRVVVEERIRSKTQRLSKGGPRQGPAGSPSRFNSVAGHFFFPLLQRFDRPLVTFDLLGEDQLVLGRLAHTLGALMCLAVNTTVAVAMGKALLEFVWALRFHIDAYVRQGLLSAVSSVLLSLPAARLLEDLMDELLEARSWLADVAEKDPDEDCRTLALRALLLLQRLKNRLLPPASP
TF, P02787, UniProt P02787, whole entry: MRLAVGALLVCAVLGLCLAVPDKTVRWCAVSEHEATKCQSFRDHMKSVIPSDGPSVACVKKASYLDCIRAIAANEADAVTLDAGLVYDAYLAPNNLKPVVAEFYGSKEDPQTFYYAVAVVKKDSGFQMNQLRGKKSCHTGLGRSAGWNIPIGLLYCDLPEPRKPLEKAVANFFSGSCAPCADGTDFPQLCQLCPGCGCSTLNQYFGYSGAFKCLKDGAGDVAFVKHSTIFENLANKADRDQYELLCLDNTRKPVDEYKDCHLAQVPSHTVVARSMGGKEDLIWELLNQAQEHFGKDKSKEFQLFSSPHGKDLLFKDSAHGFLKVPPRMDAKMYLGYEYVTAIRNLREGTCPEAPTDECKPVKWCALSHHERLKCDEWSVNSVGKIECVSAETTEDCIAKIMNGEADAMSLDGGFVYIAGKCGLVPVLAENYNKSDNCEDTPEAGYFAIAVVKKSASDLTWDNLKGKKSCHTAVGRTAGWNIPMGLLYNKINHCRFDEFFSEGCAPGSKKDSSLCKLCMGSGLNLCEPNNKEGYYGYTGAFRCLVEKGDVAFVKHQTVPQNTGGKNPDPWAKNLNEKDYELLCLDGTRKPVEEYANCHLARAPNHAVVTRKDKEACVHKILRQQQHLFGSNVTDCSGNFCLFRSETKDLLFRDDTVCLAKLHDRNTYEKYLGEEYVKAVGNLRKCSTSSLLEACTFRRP

Experiment in all cases: PRISMA enrichment of interactor (LFQ) in peptide spot vs all other peptide spots (log2 fold change); higher = stronger / more specific binding of the interactor to the peptide
In test [1] the target is ABT1, Q9ULW3. How it is done:
(§1)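 PRISMA: 15-aa overlapping tiles (offset 8 aa) of 60 microproteins, plus SOS1/GLUT1 control peptides, were spot-synthesized on cellulose membranes in triplicate. Membranes were incubated with benzonase-treated HEK293T lysate, and bound proteins were identified by LC-MS/MS with LFQ. Enrichment is the log2 fold change of each protein in one spot versus all other spots. Only interactors passing the significance cutoff are listed.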

For test [2], the target named is CDK11A, Q9UQ88. As to the method:
as §1

The target of test [3] is CNN3, Q15417. As to the method: as §1
Test [4] deals with COPG2, Q9UBF2. How it is done: as §1
Test [5] addresses EEF1B2, P24534. How it is done: as §1
The target of test [6] is FAM136A, Q96C01. As to the method: as §1
Test [7] has as its target GNB1, P62873. How it is done: as §1
Test [8] concerns the target LSM8, O95777. How it is done:
as §1

For test [9], the target named is MRPL39, Q9NYK5. How it is done:
as §1

In test [10] the target is MRPL48, Q96GC5. How it is done: as §1
For test [11], the target named is MRPL58, Q14197. How it is done:
as §1

Test [12] deals with MTHFD1L, Q6UB35. How it is done: as §1
Test [13] has as its target NDUFS1, P28331. How it is done:
as §1

The target in test [14] is NDUFS5, O43920. How it is done: as §1
For test [15], the target named is NEPRO, Q6NW34. As to the method:
as §1

For test [16], the target named is NOL6, Q9H6R4. How it is done: as §1
Test [17] concerns the target NUP214, P35658. As to the method:
as §1

The target in test [18] is NVL, O15381. How it is done:
as §1

The target of test [19] is PPHLN1, Q8NEY8. How it is done: as §1
In test [20] the target is RAB5C, P51148. How it is done:
as §1

The target of test [21] is UTP14A, Q9BVJ6. How it is done:
as §1

Test [22] addresses ACAA2, P42765. How it is done: as §1
Test [23] concerns the target CNIH4, Q9P003. As to the method: as §1
For test [24], the target named is DTNA, Q9Y4J8. As to the method: as §1
For test [25], the target named is NOC4L, Q9BVI4. How it is done: as §1
Test [26] deals with RER1, O15258. How it is done: as §1
Test [27] deals with ACACA, Q13085. As to the method:
as §1

The target in test [28] is C1QBP, Q07021. How it is done:
as §1

The target of test [29] is C3, P01024. How it is done:
as §1

Test [30] has as its target CHCHD2, Q9Y6H1. As to the method:
as §1

The target in test [31] is HEATR3, Q7Z4Q2. How it is done: as §1
Test [32] concerns the target HK2, P52789. How it is done: as §1
The target in test [33] is NDUFS7, O75251. How it is done: as §1
Test [34] concerns the target NELFA, Q9H3P2. How it is done:
as §1

Test [35] concerns the target NPM3, O75607. As to the method:
as §1

Test [36] addresses OBSL1, O75147. How it is done: as §1
Test [37] deals with PIN1, Q13526. How it is done:
as §1

Test [38] addresses REXO4, Q9GZR2. How it is done:
as §1

Test [39] deals with RIC8A, Q9NPQ8. How it is done: as §1
Test [40] concerns the target SNX9, Q9Y5X1. How it is done: as §1
Test [41] has as its target TALDO1, P37837. How it is done:
as §1

In test [42] the target is TBC1D10B, Q4KMP7. As to the method:
as §1

Test [43] has as its target TELO2, Q9Y4R8. As to the method: as §1
Test [44] deals with TF, P02787. As to the method:
as §1

The list shows a part of the results. Only hits are listed; about a third recur on repeated control peptides.

As for TGRRLITPMIMSTTA [PDZRN3-AS1], the “PRISMA enrichment of interactor (log2)” value in test [1] worked out at 4.67; in [2] it was 7.81; in test [3], 5.4; in test [4] it was 4.82; in test [5], 5.51; in test [6], 4.73. For the same molecule, the “PRISMA enrichment of interactor (log2)” value in [7] turned out to be 5.03; in test [8], 4.79; in [9], 4.93; in test [10], 4.62; in [11], 5.32; in test [12] it was 4.74. The “PRISMA enrichment of interactor (log2)” value in test [13] is 7.17; in test [14], 4.12; in test [15], 6.79; in [16], 5.15; in [17], 4.85; in test [18], 5.83. The results for the “PRISMA enrichment of interactor (log2)” value in [19], in test [20] and in test [21] were 4.9, 4.73 and 5.09, respectively.

Consider FRLFHWLTFRLLTLL [CTD-2366F13.1], for which the “PRISMA enrichment of interactor (log2)” value in [22] turned out to be 5.76; in test [23], 4.41; in [24] it was 6.21; in test [25], 4.51; in test [26], 4.53.

With RRRPPPALNAMSLGP [RNF10], the “PRISMA enrichment of interactor (log2)” value in test [27] amounted to 4.67; in test [28], 6.72; in [29] it was 5.3; in test [30], 4.36; in test [31], 5.34; in [32] it was 5.16. Besides, the “PRISMA enrichment of interactor (log2)” value came out at 7.66 in [33]; 3.93 in test [34]; 3.98 in test [35]; 7 in test [36]; 4.53 in test [37]; 7.38 in test [38]. Further, the “PRISMA enrichment of interactor (log2)” value is 4.67 in [39]; 4.28 in [40]; 4.37 in test [41]; 4.52 in test [42]; 5.06 in test [43]; 5.23 in [44].
